The supplement of paper PMC12067093, “Discovery and optimisation of a covalent ligand for TRIM25 and its application to targeted protein ubiquitination” (Chemical Science, 2025)
The list shows a part of the results.

Sequences of proteins named here, by UniProt entry; tags and fusion partners are left off. A change or cut given only in a name is not applied to a line headed by its entry.
UniProt Q92973: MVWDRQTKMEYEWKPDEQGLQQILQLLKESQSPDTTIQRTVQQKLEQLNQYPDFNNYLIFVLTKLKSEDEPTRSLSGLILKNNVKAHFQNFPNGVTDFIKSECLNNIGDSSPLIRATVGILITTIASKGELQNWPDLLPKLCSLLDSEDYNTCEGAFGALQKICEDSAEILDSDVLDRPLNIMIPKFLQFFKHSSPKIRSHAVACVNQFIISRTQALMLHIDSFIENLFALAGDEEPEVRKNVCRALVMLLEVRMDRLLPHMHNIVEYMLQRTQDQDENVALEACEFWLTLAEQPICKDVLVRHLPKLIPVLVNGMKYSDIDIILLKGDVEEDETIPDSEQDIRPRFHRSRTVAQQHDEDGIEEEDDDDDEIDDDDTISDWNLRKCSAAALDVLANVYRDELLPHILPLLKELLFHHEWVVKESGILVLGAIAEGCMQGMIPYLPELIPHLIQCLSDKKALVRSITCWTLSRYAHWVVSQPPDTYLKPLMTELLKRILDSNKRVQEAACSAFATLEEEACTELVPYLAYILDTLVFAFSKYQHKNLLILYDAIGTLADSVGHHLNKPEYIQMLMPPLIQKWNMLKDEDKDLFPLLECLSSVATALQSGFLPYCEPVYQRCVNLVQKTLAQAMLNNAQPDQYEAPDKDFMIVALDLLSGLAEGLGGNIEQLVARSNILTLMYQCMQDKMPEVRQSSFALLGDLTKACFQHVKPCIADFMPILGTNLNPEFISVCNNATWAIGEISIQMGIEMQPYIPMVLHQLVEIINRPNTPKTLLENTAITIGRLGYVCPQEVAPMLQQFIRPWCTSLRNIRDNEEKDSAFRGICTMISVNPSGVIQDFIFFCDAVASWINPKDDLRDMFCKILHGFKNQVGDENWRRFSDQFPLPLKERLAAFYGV
UniProt Q96HA7: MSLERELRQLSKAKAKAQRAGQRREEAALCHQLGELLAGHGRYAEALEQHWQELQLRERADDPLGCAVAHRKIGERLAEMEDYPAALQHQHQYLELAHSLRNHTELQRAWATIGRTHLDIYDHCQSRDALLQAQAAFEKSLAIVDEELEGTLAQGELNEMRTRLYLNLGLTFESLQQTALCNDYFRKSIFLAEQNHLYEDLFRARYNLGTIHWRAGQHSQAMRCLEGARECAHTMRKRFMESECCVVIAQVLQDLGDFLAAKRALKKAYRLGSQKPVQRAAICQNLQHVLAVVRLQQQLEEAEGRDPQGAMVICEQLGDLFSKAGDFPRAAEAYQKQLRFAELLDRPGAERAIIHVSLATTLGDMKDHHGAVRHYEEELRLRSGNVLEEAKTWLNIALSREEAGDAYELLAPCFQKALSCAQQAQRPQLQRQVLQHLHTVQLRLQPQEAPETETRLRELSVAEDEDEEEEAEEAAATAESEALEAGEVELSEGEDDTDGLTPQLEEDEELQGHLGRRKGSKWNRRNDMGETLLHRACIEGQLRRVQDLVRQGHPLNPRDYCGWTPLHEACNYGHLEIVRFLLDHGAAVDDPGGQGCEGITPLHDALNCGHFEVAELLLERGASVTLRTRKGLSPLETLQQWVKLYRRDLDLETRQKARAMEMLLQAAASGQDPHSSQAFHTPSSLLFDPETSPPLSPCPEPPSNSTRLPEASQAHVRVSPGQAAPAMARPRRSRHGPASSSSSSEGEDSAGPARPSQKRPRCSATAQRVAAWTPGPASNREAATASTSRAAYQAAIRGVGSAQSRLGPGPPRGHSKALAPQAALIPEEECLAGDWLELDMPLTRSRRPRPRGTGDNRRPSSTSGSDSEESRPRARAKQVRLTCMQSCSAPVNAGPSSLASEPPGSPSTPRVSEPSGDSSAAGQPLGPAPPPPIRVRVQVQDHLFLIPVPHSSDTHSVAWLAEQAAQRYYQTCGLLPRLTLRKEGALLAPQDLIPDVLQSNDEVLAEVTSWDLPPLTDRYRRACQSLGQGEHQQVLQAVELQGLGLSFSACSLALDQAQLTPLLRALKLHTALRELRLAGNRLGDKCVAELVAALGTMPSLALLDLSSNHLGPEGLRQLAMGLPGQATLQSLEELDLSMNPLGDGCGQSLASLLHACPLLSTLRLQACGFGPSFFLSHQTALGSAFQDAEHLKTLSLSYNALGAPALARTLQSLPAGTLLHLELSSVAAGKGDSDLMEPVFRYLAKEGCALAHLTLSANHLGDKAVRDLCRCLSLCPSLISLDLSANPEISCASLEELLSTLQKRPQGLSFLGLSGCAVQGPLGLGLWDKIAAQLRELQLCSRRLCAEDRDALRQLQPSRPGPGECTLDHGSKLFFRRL
UniProt O60603, whole entry, looked up: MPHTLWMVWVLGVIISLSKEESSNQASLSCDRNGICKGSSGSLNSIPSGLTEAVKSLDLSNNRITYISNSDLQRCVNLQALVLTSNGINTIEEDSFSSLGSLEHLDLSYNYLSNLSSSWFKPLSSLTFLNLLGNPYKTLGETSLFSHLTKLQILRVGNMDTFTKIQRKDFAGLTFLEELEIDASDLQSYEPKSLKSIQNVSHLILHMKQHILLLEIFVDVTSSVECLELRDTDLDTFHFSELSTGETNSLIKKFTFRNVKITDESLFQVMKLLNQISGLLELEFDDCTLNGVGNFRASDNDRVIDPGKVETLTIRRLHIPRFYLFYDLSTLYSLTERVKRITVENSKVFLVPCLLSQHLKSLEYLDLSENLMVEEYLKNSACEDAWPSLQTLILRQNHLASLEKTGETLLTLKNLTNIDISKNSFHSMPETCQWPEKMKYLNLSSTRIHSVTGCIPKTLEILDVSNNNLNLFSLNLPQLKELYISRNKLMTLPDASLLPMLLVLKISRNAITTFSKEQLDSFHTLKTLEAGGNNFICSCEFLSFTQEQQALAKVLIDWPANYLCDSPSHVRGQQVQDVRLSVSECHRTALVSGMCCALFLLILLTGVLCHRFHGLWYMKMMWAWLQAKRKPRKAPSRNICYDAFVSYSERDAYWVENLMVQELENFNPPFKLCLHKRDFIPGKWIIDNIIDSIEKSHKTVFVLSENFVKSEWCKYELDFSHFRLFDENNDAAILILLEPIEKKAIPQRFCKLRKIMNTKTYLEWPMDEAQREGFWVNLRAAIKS
UniProt Q02880: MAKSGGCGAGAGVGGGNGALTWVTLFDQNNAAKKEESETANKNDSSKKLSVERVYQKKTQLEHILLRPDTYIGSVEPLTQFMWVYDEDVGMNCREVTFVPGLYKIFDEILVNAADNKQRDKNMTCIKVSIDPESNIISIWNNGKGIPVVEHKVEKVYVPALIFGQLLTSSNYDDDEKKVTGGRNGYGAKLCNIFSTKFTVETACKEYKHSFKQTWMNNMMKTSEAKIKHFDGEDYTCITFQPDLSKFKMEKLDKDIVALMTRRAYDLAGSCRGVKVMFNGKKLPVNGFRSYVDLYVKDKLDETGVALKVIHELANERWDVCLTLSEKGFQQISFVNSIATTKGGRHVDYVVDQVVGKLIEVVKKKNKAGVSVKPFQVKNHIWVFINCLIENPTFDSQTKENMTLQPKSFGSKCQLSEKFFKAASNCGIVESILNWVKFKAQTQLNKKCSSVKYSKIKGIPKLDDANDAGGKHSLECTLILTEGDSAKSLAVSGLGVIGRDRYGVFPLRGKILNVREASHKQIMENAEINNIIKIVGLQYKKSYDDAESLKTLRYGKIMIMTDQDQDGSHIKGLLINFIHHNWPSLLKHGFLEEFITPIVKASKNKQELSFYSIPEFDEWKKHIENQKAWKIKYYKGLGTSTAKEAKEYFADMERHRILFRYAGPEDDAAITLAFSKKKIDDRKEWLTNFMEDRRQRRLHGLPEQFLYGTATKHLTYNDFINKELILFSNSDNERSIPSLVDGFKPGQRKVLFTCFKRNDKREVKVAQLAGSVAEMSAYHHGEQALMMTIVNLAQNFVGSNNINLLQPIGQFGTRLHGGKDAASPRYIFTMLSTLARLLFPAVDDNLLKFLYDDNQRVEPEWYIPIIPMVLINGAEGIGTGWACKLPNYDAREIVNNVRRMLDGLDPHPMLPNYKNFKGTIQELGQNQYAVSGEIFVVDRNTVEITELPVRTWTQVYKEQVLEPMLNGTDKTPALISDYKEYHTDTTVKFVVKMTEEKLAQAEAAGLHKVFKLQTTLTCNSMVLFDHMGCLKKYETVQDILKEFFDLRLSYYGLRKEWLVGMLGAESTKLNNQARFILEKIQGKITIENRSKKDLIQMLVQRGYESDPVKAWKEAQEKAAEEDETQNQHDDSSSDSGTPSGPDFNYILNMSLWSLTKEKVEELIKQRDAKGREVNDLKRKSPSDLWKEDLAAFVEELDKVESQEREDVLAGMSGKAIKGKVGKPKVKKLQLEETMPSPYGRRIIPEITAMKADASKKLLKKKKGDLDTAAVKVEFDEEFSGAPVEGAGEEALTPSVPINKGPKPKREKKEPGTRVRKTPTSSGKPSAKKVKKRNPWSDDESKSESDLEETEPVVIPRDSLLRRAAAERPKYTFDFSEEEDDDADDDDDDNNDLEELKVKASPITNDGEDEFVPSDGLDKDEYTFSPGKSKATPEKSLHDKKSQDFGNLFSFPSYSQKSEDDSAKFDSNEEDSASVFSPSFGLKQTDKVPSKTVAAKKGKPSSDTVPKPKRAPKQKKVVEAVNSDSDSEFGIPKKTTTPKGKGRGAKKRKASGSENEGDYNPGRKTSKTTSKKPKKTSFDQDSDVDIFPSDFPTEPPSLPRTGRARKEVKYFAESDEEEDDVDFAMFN
UniProt P11388: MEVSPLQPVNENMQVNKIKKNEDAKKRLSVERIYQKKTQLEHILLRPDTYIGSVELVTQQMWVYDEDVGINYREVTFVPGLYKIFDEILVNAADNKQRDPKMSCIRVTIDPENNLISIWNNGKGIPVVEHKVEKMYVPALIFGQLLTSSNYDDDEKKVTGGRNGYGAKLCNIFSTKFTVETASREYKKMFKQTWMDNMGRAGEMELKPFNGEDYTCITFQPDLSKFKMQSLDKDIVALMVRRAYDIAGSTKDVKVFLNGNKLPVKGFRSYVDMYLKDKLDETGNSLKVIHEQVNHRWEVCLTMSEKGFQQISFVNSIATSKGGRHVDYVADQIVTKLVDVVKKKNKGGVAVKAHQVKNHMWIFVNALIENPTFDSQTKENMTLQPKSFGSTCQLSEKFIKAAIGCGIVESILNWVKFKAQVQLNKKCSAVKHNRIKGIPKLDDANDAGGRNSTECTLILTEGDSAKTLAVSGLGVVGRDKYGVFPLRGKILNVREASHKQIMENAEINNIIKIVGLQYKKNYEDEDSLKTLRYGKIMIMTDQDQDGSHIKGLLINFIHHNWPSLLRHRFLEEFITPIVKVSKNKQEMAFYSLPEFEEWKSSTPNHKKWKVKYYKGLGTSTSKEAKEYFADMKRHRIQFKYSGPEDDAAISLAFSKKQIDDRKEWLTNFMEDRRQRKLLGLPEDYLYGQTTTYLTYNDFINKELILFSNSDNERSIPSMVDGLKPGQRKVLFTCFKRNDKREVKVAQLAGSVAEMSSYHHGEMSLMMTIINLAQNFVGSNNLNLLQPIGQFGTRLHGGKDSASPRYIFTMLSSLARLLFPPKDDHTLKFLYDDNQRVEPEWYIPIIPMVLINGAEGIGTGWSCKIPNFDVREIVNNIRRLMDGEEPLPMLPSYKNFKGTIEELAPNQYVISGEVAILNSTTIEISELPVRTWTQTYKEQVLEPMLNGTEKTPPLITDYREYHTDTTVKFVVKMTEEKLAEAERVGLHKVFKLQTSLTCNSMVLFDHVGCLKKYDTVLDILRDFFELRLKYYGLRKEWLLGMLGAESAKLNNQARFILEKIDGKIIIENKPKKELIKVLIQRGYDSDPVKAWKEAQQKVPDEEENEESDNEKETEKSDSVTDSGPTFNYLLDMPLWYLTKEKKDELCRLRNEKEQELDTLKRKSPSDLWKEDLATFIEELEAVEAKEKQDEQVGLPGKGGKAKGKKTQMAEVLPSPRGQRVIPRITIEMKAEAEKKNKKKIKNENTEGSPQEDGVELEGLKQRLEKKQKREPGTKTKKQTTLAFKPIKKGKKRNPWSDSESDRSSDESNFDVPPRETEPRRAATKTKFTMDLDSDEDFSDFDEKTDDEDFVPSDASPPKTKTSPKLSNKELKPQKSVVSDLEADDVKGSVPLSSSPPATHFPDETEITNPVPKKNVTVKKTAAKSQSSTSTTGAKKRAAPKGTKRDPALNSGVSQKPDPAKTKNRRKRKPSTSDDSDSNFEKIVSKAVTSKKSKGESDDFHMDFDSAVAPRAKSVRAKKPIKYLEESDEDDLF
UniProt P60174, whole entry, looked up: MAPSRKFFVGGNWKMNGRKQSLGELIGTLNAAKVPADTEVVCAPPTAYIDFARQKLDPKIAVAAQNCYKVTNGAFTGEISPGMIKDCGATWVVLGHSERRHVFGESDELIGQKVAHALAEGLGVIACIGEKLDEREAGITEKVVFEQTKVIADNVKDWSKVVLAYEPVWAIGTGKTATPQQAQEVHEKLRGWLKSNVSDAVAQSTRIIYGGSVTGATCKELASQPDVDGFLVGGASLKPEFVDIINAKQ

Compound: Cc1cc(ccc1-c1ccccc1)C(=O)N1CCCN(CC1)C(=O)CCl [compound 10]
Experiment: probe-labelled cysteine peptide fold change vs DMSO (competition) (log2 fold change); higher = less target engagement (more negative = stronger competition)
Settings: THP-1, incubation time: 4 h
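Further: competitive profiling in live THP-1 cells: cysteine peptides tagged with an iodoacetamide desthiobiotin (IA-DTB) probe, intensity after compound treatment relative to DMSO-treated cells.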

| Target | probe-labelled cysteine peptide fold change (10 µM) | probe-labelled cysteine peptide fold change (50 µM) |
| --- | --- | --- |
| TOR2A_Q5JU69_43_CTLGAFCECDFRPDLPGLECDLAQHLAGQHLAK (UniProt Q5JU69) | 0.0995 | 0.358 |
| TNPO1_Q92973_103_SECLNNIGDSSPLIR (UniProt Q92973) | -0.00794 | 0.154 |
| TONSL_Q96HA7_537_ACIEGQLR (UniProt Q96HA7) | 0.00849 | -0.719 |
| TOMM34_Q15785_236_ALCYLVLK (UniProt Q15785) | 0.293 | 0.0603 |
| TNS3_Q68CZ2_107_AQESWLNSNLQHVVVIHCR (UniProt Q68CZ2) | 0.137 | 0.262 |
| TOMM40_O96008_354_FQCGFGLTIG (UniProt O96008) | -0.0217 | 0.0609 |
| TLR2_O60603_564_VLIDWPANYLCDSPSHVR (UniProt O60603) | 0.0776 | 0.0301 |
| TMEM106B_Q9NUM4_61+64_DSVTCPTCQGTGR (UniProt Q9NUM4) | -0.0829 | -0.647 |
| TOP2B_Q02880_387_NHIWVFINCLIENPTFDSQTK (UniProt Q02880) | 0.0327 | 0.24 |
| TMEM87B_Q96K49_121_LSVDEDFCHYLK (UniProt Q96K49) | -0.258 | -0.0953 |
| TNPO1_Q92973_164_ICEDSAEILDSDVLDRPLNIMIPK (UniProt Q92973) | -0.0145 | -0.0838 |
| TM9SF2_Q99805_250_HTHIDKPDCSGPPMDISNK (UniProt Q99805) | -0.0993 | -0.152 |
| TONSL_Q96HA7_231_ECAHTMR (UniProt Q96HA7) | -0.316 | -1.42 |
| TOPBP1_Q92547_1284_IDYCHLIEK (UniProt Q92547) | 0.108 | -0.108 |
| TOR3A_Q9H497_227_ETQQLCHQTLFIFDEAEK (UniProt Q9H497) | 0.174 | 0.408 |
| TNPO1_Q92973_153_LCSLLDSEDYNTCEGAFGALQK (UniProt Q92973) | -0.308 | -0.15 |
| TMCO4_Q5TGY1_423_DCQGIIEDVILLGAPVEGEAK (UniProt Q5TGY1) | -0.702 | -0.104 |
| TMED3_Q9Y3Q3_101_GVYQFCFSNEFSTFSHK (UniProt Q9Y3Q3) | 0.263 | 0.378 |
| TNPO3_Q9Y5L0_303_IFTELCETFLEK (UniProt Q9Y5L0) | 0.35 | 0.295 |

| Target | probe-labelled cysteine peptide fold change (10 µM) | probe-labelled cysteine peptide fold change (50 µM) |
| --- | --- | --- |
| TOP2B_Q02880_271_RAYDLAGSCR (UniProt Q02880) | 0.0555 | -0.0764 |
| TNPO2_O14787_93_QECLNNIGDASSLIR (UniProt O14787) | 0.22 | 0.135 |
| TOX4_O94842_577_SGCENPPIVSK (UniProt O94842) | -0.013 | -0.064 |
| TNKS1BP1_Q9C0C2_1373_EHGVGGVSQCPEPGLR (UniProt Q9C0C2) | -0.111 | -0.339 |
| TNPO1_Q92973_142+153_LCSLLDSEDYNTCEGAFGALQK (UniProt Q92973) | -0.344 | -0.0836 |
| TMEM120B_A0PK00_8_CEREWHELEGEFQELQETHR (UniProt A0PK00) | -0.0819 | 0.275 |
| TMX2_Q9Y320_46_KLPPLCHGLPTQR (UniProt Q9Y320) | -0.165 | 0.206 |
| TLN1_Q9Y490_2408_MVAAATNNLCEAANAAVQGHASQEK (UniProt Q9Y490) | 0.227 | 0.0436 |
| TOP2A_P11388_1145_EKKDELCR (UniProt P11388) | -0.169 | -0.516 |
| TOP2A_P11388_216_AGEMELKPFNGEDYTCITFQPDLSK (UniProt P11388) | 0.0987 | -0.0773 |
| TNPO3_Q9Y5L0_908_QVTSAEECK (UniProt Q9Y5L0) | 0.012 | 0.155 |
| TMEM192_Q8IY95_266_RLLALTSSDLGCQPSR (UniProt Q8IY95) | -0.0328 | 0.17 |
| TLR2_O60603_353_VFLVPCLLSQHLK (UniProt O60603) | -0.00495 | 0.228 |
| TPI1_P60174_124_DCGATWVVLGHSERR (UniProt P60174) | -0.0531 | -0.788 |
| TMEM147_Q9BVK8_116_CIPLWVGAR (UniProt Q9BVK8) | -0.0315 | -0.102 |
| TPI1_P60174_164_VAHALAEGLGVIACIGEK (UniProt P60174) | 0.0839 | 0.00853 |
| TPI1_P60174_255_IIYGGSVTGATCK (UniProt P60174) | -0.249 | -0.0587 |
| TNPO1_Q92973_862_DDLRDMFCK (UniProt Q92973) | -0.311 | -0.192 |
| TMEM259_Q4ZIN3_246_LSIPVMVVTLDPTRDQCFGDR (UniProt Q4ZIN3) | -0.372 | 0.0738 |
